The supplement of paper PMC10849652
Some of the results follow.

Amino acid sequences for entries named in this document (tags omitted). A change or cut given only in a name is not applied to a line headed by its entry.
UniProt Q9H2U2: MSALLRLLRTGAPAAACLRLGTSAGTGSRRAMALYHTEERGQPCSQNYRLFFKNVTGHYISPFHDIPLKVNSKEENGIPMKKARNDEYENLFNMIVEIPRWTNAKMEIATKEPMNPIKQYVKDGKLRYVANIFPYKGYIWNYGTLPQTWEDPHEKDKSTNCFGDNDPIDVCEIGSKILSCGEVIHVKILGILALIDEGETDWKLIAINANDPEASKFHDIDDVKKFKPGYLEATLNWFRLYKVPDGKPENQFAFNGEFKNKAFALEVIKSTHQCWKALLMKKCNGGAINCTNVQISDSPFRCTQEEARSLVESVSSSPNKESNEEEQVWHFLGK
UniProt Q6P1K2: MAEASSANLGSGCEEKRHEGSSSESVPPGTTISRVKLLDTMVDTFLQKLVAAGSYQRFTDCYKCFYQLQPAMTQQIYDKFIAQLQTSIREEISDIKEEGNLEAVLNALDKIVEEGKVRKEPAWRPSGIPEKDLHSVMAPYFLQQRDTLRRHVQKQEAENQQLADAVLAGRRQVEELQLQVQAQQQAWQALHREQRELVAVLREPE
UniProt Q8IYS1: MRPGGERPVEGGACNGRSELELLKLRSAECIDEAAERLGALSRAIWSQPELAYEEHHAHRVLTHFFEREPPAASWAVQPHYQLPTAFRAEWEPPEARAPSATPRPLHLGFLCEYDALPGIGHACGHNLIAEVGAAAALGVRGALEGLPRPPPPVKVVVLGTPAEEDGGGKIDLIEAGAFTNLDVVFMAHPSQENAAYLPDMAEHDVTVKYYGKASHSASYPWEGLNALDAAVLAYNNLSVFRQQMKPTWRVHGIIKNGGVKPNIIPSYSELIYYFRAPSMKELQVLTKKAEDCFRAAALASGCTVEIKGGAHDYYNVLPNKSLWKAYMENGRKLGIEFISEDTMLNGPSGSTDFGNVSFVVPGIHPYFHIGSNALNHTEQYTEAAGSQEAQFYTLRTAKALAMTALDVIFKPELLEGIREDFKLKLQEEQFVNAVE
UniProt Q9H307: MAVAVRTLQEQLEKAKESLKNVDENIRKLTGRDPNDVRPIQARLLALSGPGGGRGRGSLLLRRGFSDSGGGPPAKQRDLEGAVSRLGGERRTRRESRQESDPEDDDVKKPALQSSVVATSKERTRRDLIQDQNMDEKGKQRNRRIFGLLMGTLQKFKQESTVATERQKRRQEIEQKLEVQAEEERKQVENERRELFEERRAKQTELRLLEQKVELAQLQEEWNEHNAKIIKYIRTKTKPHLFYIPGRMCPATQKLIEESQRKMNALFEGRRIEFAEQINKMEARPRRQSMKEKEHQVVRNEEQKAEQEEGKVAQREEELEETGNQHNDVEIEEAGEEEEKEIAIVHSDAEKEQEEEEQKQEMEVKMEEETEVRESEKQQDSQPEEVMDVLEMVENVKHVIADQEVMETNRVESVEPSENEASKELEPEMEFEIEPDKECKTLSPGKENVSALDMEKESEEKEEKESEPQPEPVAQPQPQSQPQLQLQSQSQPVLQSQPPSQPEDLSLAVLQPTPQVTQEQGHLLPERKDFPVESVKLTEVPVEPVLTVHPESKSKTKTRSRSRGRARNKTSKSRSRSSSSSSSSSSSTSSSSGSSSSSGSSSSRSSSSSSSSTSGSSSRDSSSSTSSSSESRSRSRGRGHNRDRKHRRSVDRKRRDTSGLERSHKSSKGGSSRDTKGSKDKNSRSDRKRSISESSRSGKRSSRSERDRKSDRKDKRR
UniProt P0CAP2, whole entry, looked up: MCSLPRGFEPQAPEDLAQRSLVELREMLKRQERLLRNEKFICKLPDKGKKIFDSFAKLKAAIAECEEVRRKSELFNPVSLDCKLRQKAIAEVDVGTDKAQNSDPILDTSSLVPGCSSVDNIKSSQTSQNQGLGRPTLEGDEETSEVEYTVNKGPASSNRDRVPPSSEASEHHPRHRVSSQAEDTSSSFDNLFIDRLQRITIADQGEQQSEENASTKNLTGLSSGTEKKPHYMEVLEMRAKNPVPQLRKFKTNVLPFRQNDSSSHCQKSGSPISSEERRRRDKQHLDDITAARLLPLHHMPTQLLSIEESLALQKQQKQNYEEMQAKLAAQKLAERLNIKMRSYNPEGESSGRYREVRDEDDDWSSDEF
UniProt P53350, whole entry, looked up: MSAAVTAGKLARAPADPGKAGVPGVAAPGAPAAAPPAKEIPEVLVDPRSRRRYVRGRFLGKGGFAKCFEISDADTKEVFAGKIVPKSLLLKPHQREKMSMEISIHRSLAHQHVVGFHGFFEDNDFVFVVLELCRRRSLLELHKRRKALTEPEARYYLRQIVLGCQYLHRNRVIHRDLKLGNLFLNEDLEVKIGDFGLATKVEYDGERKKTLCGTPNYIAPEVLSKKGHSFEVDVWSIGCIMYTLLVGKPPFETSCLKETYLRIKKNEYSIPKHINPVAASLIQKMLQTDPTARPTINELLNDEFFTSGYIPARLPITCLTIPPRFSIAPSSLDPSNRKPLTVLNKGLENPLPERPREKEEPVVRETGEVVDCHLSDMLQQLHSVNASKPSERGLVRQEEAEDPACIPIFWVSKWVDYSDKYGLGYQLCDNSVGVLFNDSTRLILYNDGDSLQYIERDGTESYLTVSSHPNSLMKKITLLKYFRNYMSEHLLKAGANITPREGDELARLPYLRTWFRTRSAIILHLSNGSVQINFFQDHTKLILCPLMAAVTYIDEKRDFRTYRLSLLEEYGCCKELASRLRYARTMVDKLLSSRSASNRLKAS
UniProt P29590: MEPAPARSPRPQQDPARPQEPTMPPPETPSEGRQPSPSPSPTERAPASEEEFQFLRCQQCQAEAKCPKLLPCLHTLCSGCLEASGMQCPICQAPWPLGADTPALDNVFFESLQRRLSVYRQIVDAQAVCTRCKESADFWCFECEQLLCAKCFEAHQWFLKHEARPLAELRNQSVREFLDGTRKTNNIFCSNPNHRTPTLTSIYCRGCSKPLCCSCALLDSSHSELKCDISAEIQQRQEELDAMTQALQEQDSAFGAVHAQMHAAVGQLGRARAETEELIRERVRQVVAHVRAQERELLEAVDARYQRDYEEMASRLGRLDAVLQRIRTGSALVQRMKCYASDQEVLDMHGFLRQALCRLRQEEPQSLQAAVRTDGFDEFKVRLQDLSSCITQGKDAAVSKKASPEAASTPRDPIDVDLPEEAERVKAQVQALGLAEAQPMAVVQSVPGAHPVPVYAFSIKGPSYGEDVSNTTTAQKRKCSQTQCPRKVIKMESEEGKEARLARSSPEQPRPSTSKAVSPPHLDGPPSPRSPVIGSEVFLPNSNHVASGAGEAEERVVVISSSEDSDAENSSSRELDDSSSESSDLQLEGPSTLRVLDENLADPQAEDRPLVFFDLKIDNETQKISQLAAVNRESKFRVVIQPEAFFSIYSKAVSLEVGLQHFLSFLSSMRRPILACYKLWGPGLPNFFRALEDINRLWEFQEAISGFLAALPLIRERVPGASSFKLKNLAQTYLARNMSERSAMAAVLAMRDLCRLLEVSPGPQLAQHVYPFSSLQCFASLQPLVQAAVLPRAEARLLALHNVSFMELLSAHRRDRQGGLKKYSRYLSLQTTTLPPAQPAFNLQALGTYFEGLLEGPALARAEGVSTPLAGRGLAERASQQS
UniProt P54098: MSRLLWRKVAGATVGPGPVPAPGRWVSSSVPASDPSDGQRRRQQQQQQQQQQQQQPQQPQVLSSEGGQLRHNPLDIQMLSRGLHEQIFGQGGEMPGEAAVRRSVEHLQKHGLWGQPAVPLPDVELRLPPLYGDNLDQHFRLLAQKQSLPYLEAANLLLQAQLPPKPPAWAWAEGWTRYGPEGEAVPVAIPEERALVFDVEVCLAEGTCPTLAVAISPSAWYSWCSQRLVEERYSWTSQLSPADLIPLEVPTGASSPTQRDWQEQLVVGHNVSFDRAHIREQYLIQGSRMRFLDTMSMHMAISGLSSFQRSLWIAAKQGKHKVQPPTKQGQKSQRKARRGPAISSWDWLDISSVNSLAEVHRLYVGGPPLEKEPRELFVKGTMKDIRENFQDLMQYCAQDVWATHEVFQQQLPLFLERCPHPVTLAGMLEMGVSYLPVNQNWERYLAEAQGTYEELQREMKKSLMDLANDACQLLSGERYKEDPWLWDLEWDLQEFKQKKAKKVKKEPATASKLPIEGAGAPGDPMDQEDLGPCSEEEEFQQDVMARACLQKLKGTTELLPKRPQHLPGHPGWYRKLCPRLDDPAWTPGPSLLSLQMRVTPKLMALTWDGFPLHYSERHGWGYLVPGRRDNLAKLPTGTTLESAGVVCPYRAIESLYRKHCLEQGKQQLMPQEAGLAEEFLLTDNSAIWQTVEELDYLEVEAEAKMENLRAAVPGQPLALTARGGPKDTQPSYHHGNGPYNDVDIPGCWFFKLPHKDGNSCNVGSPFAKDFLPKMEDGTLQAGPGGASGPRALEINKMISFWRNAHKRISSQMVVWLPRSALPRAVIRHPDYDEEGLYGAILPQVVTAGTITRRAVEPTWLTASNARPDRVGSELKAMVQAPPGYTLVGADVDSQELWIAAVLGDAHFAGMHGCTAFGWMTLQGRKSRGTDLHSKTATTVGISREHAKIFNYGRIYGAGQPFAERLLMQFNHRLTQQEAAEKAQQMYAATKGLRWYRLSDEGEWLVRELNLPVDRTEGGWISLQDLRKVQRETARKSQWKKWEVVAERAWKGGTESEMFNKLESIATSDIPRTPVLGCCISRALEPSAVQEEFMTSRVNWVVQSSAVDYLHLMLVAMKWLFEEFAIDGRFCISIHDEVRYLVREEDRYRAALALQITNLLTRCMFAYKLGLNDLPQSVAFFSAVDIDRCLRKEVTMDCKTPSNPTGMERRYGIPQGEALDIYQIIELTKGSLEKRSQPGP
UniProt Q9HCU8: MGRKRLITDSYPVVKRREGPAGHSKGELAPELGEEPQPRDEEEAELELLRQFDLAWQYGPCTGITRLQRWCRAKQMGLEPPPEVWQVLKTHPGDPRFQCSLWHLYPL
UniProt Q7Z3K3: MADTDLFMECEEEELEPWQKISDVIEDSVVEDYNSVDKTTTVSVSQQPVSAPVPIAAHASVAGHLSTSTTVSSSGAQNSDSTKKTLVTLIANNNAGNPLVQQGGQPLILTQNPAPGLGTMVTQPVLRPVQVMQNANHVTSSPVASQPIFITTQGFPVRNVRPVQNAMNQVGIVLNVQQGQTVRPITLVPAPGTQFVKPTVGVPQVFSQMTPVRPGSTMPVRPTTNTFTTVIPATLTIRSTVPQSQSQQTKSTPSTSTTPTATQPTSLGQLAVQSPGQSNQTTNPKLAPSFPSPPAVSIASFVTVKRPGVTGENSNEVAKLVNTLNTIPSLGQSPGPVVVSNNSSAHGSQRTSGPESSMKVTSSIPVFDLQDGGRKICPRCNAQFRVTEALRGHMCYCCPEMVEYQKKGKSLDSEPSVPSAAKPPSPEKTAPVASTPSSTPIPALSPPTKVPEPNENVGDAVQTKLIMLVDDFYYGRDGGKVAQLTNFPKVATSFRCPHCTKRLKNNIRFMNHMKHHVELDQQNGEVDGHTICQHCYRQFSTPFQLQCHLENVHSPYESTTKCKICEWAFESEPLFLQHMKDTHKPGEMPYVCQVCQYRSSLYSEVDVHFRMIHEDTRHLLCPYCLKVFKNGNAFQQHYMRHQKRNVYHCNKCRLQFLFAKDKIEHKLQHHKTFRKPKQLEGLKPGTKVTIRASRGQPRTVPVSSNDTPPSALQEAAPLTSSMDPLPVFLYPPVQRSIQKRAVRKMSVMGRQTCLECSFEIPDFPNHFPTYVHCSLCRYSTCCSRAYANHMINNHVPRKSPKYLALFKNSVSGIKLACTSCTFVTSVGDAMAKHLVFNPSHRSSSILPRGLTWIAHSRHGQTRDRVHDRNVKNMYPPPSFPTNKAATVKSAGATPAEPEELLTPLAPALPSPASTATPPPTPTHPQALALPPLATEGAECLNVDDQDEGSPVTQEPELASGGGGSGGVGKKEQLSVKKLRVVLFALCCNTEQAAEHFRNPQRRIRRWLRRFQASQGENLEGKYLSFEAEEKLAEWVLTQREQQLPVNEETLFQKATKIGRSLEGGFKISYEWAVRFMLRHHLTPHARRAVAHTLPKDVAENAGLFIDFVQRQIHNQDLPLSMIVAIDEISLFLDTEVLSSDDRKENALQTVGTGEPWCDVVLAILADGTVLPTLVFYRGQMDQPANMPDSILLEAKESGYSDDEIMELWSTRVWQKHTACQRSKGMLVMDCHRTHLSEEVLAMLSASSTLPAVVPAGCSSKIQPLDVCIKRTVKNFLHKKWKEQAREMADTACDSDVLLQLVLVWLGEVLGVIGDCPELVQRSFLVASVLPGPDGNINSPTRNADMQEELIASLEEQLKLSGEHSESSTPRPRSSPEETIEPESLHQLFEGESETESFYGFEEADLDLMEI

Tests used:
Assay in all cases: log2 fold change, soluble protein after heating vs DMSO (PISA); higher = thermal stabilisation; K562 lysate, 10 uM; active = over 0.2 and 3.5 SD of the protein, either way, in both replicates (recomputed)
vemurafenib = compound: CCCS(=O)(=O)Nc1ccc(F)c(C(=O)c2c[nH]c3ncc(-c4ccc(Cl)cc4)cc23)c1F [vemurafenib]
How it was run: (§1)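 Dounce homogenisation of K562 pellets in PBS pH 7.4 with 1 mM MgCl2 produced a crude extract, used at 1 mg/mL protein. Exposure to 10 μM compound lasted 30 min, and aliquots were then heated for 3 min across 48°C-58°C, pooled and brought to 0.5% NP-40 at 4°C. The supernatant after 21,000xg for 90 min was quantified by TMTpro 16plex LC-MS/MS with channel sums equalised. Duplicate values are given as log-two fold change in thermal stability relative to solvent controls.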

[1] = compound: CCCS(=O)(=O)Nc1ccc(F)c(C(=O)c2c[nH]c3ncc(Cl)cc23)c1F
How it was run: as §1

barasertib = compound: CCN(CCCOc1ccc2c(Nc3cc(CC(=O)Nc4cccc(F)c4)[nH]n3)ncnc2c1)CCOP(=O)(O)O [barasertib]
How it was run: as §1

[2] = compound: CC[C@@H]1C(=O)N(C)c2cnc(Nc3ccc(C(=O)NC4CCN(C)CC4)cc3OC)nc2N1C1CCCC1
How it was run: as §1

volasertib = compound: CC[C@@H]1C(=O)N(C)c2cnc(Nc3ccc(C(=O)N[C@H]4CC[C@H](N5CCN(CC6CC6)CC5)CC4)cc3OC)nc2N1C(C)C [volasertib]
How it was run: as §1

[3] = compound: CCn1c(C(=O)N(C2CC2)C2CC2)cc2c3c(ncn3C)c(Nc3cc(C)n(C)n3)nc21
How it was run: as §1

[4] = compound: CCn1cc(-c2ccnc3[nH]c(-c4cccc(CN(C)C)c4)cc23)c(-c2ccc(NC(=O)N(C)C)cc2)n1
How it was run: as §1

[5] = compound: CN1CCC(CNc2ccc3ncc(-c4cccc(OC(F)(F)F)c4)n3n2)CC1
How it was run: as §1

saracatinib = compound: CN1CCN(CCOc2cc(OC3CCOCC3)c3c(Nc4c(Cl)ccc5c4OCO5)ncnc3c2)CC1 [saracatinib]
How it was run: as §1

sotrastaurin = compound: CN1CCN(c2nc(C3=C(c4c[nH]c5ccccc45)C(=O)NC3=O)c3ccccc3n2)CC1 [sotrastaurin]
How it was run: as §1

alvocidib = compound: CN1CC[C@H](c2c(O)cc(O)c3c(=O)cc(-c4ccccc4Cl)oc23)[C@H](O)C1 [alvocidib]
How it was run: as §1

Tubastatin A = compound: CN1CCc2c(c3ccccc3n2Cc2ccc(C(=O)NO)cc2)C1 [Tubastatin A]
How it was run: as §1

[6] = compound: CNC(=O)C1=CC=CC=C1NC2=NC(=NC=C2Cl)NC3=C(C=C(C=C3)N4CCOCC4)OC
How it was run: as §1

defactinib = compound: CNC(=O)c1ccc(Nc2ncc(C(F)(F)F)c(NCc3nccnc3N(C)S(C)(=O)=O)n2)cc1 [defactinib]
How it was run: as §1

[7] = compound: CNc1nc(-c2ccc3c(N)n[nH]c3c2)cc(N2C[C@@H](C(=O)NC3CCCCC3)CC[C@H]2C)n1
How it was run: as §1

encorafenib = compound: COC(=O)N[C@@H](C)CNc1nccc(-c2cn(C(C)C)nc2-c2cc(Cl)cc(NS(C)(=O)=O)c2F)n1 [encorafenib]
How it was run: as §1

[8] = compound: COC(=O)[C@H](CCSC)NC(=O)C1=C(C=C(C=C1)NC[C@H](CS)N)C2=CC=CC=C2
How it was run: as §1

alisertib = compound: COc1cc(Nc2ncc3c(n2)-c2ccc(Cl)cc2C(c2c(F)cccc2OC)=NC3)ccc1C(=O)O [alisertib]
How it was run: as §1

[9] = compound: COc1cc2nc(-c3cc(F)ccc3O)nc(N[C@@H]3CNC[C@H]3C(C)(C)O)c2cc1OC
How it was run: as §1

gefitinib = compound: COc1cc2ncnc(Nc3ccc(F)c(Cl)c3)c2cc1OCCCN1CCOCC1 [gefitinib]
How it was run: as §1

Measured: log2 fold change

PPA2 (UniProt Q9H2U2)
inactive: vemurafenib 0.016 | [1] 0.027 | barasertib -0.017 | [2] 0.004 | volasertib -0.014 | [3] -0.016 | [4] -0.042 | [5] 0.032 | saracatinib 0 | sotrastaurin -0.014 | alvocidib -0.002 | Tubastatin A 0.031 | [6] -0.006 | defactinib -0.004 | [7] 0.015 | encorafenib -0.014 | [8] -0.004 | alisertib 0.079 | [9] 0 | gefitinib 0.02

PMF1 (UniProt Q6P1K2)
inactive: vemurafenib 0.017 | [1] 0.014 | barasertib 0.075 | [2] 0.02 | volasertib 0.038 | [3] -0.034 | [4] 0.121 | [5] -0.047 | saracatinib 0.028 | sotrastaurin -0.017 | alvocidib 0.026 | Tubastatin A 0.04 | [6] 0.027 | defactinib 0.009 | [7] -0.017 | encorafenib 0.029 | [8] -0.007 | alisertib 0.034 | [9] -0.013 | gefitinib -0.016

POLR2I (UniProt P36954)
inactive: vemurafenib -0.036 | [1] 0.04 | barasertib 0.087 | volasertib -0.023 | [3] 0.06 | [4] 0.078 | [5] -0.04 | saracatinib -0.074 | sotrastaurin -0.299 | alvocidib 0.108 | Tubastatin A 0.064 | [6] 0.052 | defactinib 0.045 | [7] -0.018 | alisertib -0.034 | [9] 0.03 | gefitinib -0.322

PLEKHH2 (UniProt E5RGK1)
inactive: vemurafenib -0.08 | [1] -0.004 | [2] -0.071 | volasertib -0.012 | [4] 0.408 | [5] 0.026 | saracatinib -0.136 | sotrastaurin -0.024 | alvocidib 0.007 | defactinib -0.104 | [7] 0.052 | encorafenib 0.043 | [8] -0.107 | [9] -0.025

PM20D2 (UniProt Q8IYS1)
inactive: vemurafenib -0.101 | [1] 0.008 | barasertib -0.131 | [2] 0.116 | volasertib -0.041 | [3] 0.182 | Tubastatin A 0.113 | defactinib 0.034 | encorafenib 0.215 | [8] -0.177 | [9] -0.024

POLA1 (UniProt P09884)
inactive: vemurafenib 0.002 | [1] 0 | barasertib 0.042 | [2] 0.021 | volasertib -0.012 | [3] 0.03 | [4] -0.009 | [5] -0.016 | saracatinib -0.003 | sotrastaurin 0.004 | alvocidib -0.01 | Tubastatin A -0.031 | [6] 0.037 | defactinib 0.016 | [7] -0.004 | encorafenib 0.022 | [8] 0.061 | alisertib -0.013 | [9] 0.014 | gefitinib 0.008

PNN (UniProt Q9H307)
inactive: vemurafenib -0.052 | [1] -0.034 | barasertib -0.006 | [2] 0.037 | volasertib 0.056 | [3] 0.001 | [4] 0.036 | [5] 0.072 | saracatinib -0.039 | sotrastaurin -0.015 | alvocidib -0.017 | Tubastatin A 0.08 | [6] 0.041 | defactinib 0 | [7] 0.11 | encorafenib 0.055 | [8] 0.046 | alisertib 0.003 | [9] 0.013 | gefitinib 0.001

POLR2M (UniProt P0CAP2)
active: encorafenib 0.33
inactive: vemurafenib 0.014 | [1] 0.02 | barasertib 0.021 | [2] -0.108 | volasertib -0.024 | [3] 0.008 | [4] -0.055 | [5] 0.067 | saracatinib -0.007 | sotrastaurin 0.041 | alvocidib -0.002 | Tubastatin A 0.031 | [6] 0.021 | defactinib 0.037 | [7] 0.035 | [8] -0.047 | alisertib -0.011 | [9] 0.019 | gefitinib 0.027

PLK1 (UniProt P53350)
active: sotrastaurin -0.335 | [6] -0.347
inactive: vemurafenib 0.053 | [1] -0.009 | barasertib 0.003 | volasertib -0.009 | [3] 0.014 | [4] 0.165 | [5] -0.279 | saracatinib 0.021 | alvocidib 0.059 | Tubastatin A -0.108 | defactinib -0.268 | [7] 0.006 | encorafenib 0.097 | [8] -0.034 | alisertib -0.003 | [9] -0.023 | gefitinib 0.003

PNPLA8 (UniProt Q9NP80)
inactive: vemurafenib -0.017 | [1] 0.039 | barasertib 0.089 | [2] -0.185 | volasertib 0.016 | [3] -0.018 | [4] 0.622 | [5] 0.018 | saracatinib 0.039 | sotrastaurin -0.094 | alvocidib -0.041 | Tubastatin A -0.231 | [6] -0.093 | defactinib -0.078 | [7] -0.011 | encorafenib 0.013 | [8] -0.072 | alisertib -0.007 | [9] -0.033 | gefitinib -0.012

PPHLN1 (UniProt Q8NEY8)
inactive: vemurafenib -0.024 | [1] 0.043 | [2] 0.081 | volasertib -0.045 | [4] 0.124 | [5] -0.046 | sotrastaurin -0.008 | alvocidib -0.036 | [6] 0.059 | defactinib -0.026 | encorafenib 0.053 | [8] 0.023 | alisertib -0.037 | [9] 0.067 | gefitinib 0

Taken from the results shown (2 entries):
PNPLA8 (UniProt Q9NP80)
inactive: vemurafenib -0.017 | [1] 0.039 | barasertib 0.089 | [2] -0.185 | volasertib 0.016 | [3] -0.018 | [4] 0.622 | [5] 0.018 | saracatinib 0.039 | sotrastaurin -0.094 | alvocidib -0.041 | Tubastatin A -0.231 | [6] -0.093 | defactinib -0.078 | [7] -0.011 | encorafenib 0.013 | [8] -0.072 | alisertib -0.007 | [9] -0.033 | gefitinib -0.012

PPHLN1 (UniProt Q8NEY8)
inactive: vemurafenib -0.024 | [1] 0.043 | [2] 0.081 | volasertib -0.045 | [4] 0.124 | [5] -0.046 | sotrastaurin -0.008 | alvocidib -0.036 | [6] 0.059 | defactinib -0.026 | encorafenib 0.053 | [8] 0.023 | alisertib -0.037 | [9] 0.067 | gefitinib 0

(cont.)

PNKP (UniProt Q96T60)
inactive: vemurafenib 0 | [1] -0.012 | barasertib 0.132 | [2] -0.068 | volasertib -0.1 | [3] -0.04 | [4] -0.236 | [5] 0.174 | saracatinib 0.25 | sotrastaurin 0.027 | alvocidib -0.06 | Tubastatin A -0.04 | [6] 0.007 | defactinib 0.068 | [7] 0.05 | encorafenib -0.008 | [8] 0.131 | alisertib 0.023 | [9] 0.054 | gefitinib 0.048

PLXNA3 (UniProt P51805)
inactive: vemurafenib -0.046 | [1] 0.103 | barasertib 0.296 | [2] -0.061 | volasertib -0.117 | [3] 0.01 | [4] 0.083 | [5] 0.16 | sotrastaurin -0.06 | alvocidib -0.29 | Tubastatin A 0.09 | [6] -0.078 | defactinib 0.068 | encorafenib 0.113 | [8] 0.068 | [9] 0.155

POLD1 (UniProt P28340)
inactive: vemurafenib 0.01 | [1] 0.053 | barasertib -0.011 | [2] -0.021 | volasertib -0.005 | [3] 0.035 | [4] 0.028 | [5] -0.043 | saracatinib 0.01 | sotrastaurin 0.015 | alvocidib 0.012 | Tubastatin A -0.075 | [6] 0.035 | defactinib 0.027 | [7] 0.011 | encorafenib 0.008 | [8] 0.074 | alisertib 0.007 | [9] 0.007 | gefitinib -0.036

PML (UniProt P29590)
inactive: vemurafenib -0.008 | [1] 0.005 | barasertib -0.026 | [2] 0.007 | volasertib 0.01 | [3] -0.015 | [4] -0.052 | [5] 0.033 | saracatinib 0.034 | sotrastaurin -0.008 | alvocidib -0.039 | Tubastatin A -0.003 | [6] 0.024 | defactinib -0.036 | [7] 0.033 | encorafenib 0.008 | [8] -0.071 | alisertib 0.011 | [9] 0.014 | gefitinib 0.034

POLG (UniProt P54098)
inactive: vemurafenib -0.01 | [1] -0.045 | barasertib -0.046 | [2] 0.017 | volasertib -0.087 | [3] -0.035 | [4] -0.207 | [5] 0.166 | saracatinib 0.002 | sotrastaurin -0.055 | alvocidib 0.033 | Tubastatin A 0.074 | [6] 0 | defactinib -0.021 | [7] 0.034 | encorafenib -0.081 | [8] 0.082 | alisertib -0.025 | [9] -0.007 | gefitinib 0.096

POLD4 (UniProt Q9HCU8)
inactive: vemurafenib 0.116 | [1] 0.008 | [2] 0.022 | volasertib -0.123 | [3] 0.002 | saracatinib 0.013 | sotrastaurin 0.04 | Tubastatin A 0.037 | [6] 0.175 | defactinib -0.047 | [7] 0.044 | encorafenib -0.033 | [8] -0.047 | alisertib 0.013 | [9] 0.047 | gefitinib 0.038

POGZ (UniProt Q7Z3K3)
inactive: vemurafenib 0.032 | [1] -0.041 | [2] 0.182 | volasertib -0.009 | [3] -0.082 | [4] -0.065 | [5] -0.253 | saracatinib 0.023 | sotrastaurin 0.049 | alvocidib -0.171 | Tubastatin A 0.228 | defactinib -0.004 | [7] -0.008 | encorafenib -0.236 | [8] 0.151 | alisertib 0.041 | [9] 0.091 | gefitinib 0.027
